In PMC5620210:
Results are given in words; binding and its absence hold for the method and conditions named. Binding seen in cells or lysates may run through a third protein. Some results given as binding are weak or reduced against the parent protein; the word gives no strength.

Molecular target: WAVE2 (WASF2) (human (endogenous in WRO and FTC133)) (UniProt Q9Y6W5)
Test: co-IP; WAVE2 immunoprecipitation (anti-WAVE2 antibody 1:50, 4°C overnight, Protein G-sepharose) from lysates of WRO and FTC133 cells expressing HA-ABI3, western blot; also after 2 h with 20 uM LY294002 (more co-precipitate)

For CYFIP1 (from UniProt Q7L576 1-1253), the binding was “binds”.
